# The supplement of paper PMC4604168 (melanoma cell lines)
# This is one part of the list. Single values are uncertain, as repeats are few or missing.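 Cells were imaged in 1,536-well plates, and nuclei stained with an antibody against cleaved PARP were counted against all DNA-stained nuclei to give the apoptosis fraction. Screening doses were chosen to leave most cells alive, and resting and induced cleaved-PARP levels differ strongly between cell lines.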
# Test system: RPMI7951
# Assay: cleaved PARP positive nuclei fraction relative to DMSO control; melanoma cells; higher = more apoptosis
# Settings: library dose: low library concentration; 72 h
row,Structure (SMILES),cleaved PARP positive nuclei fraction [%]
1,"NC1(c2ccc(-c3nc4ccn5c(=O)[nH]nc5c4cc3-c3ccccc3)cc2)CCC1 + Cc1nc(Nc2ncc(C(=O)Nc3c(C)cccc3Cl)s2)cc(N2CCN(CCO)CC2)n1 [dasatanib] (first compound 0.4 µM, partner dose 0.004 µM)",201
2,"C[C@@H](N)c1ccc(C(=O)Nc2ccnc3[nH]ccc23)cc1 + CC(C)(C)c1cnc(CSc2cnc(NC(=O)C3CCNCC3)s2)o1 [SNS-032] (first compound 0.4 µM, partner dose 0.01 µM)",99.5
3,"NC(=O)c1ccc(N(C(N)=O)c2c(F)cccc2F)nc1-c1ccc(F)cc1F + CN1CCN(c2ccc3nc(-c4c(N)c5c(F)cccc5[nH]c4=O)[nH]c3c2)CC1 [Dovitinib] (first compound 0.4 µM, partner dose 0.1 µM)",177
4,"NC(=O)c1ccc(N(C(N)=O)c2c(F)cccc2F)nc1-c1ccc(F)cc1F + C[C@]1(O)C[C@@H](c2nc(-c3ccc4ccc(-c5ccccc5)nc4c3)c3c(N)nccn32)C1 [OSI906] (first compound 0.4 µM, partner dose 0.4 µM)",80.3
5,"Cn1cnc2c(F)c(Nc3ccc(Br)cc3Cl)c(C(=O)NOCCO)cc21 [selumetinib] + Cn1nnc2c(C(N)=O)ncn2c1=O [temozolomide] (first compound 0.015 µM, partner dose 2 µM)",48.5
6,"C[C@]1(O)C[C@@H](c2nc(-c3ccc4ccc(-c5ccccc5)nc4c3)c3c(N)nccn32)C1 + Clc1ccc(Nc2nnc(Cc3ccncc3)c3ccccc23)cc1 [vatalanib] (first compound 0.4 µM, partner dose 2 µM)",33.6
7,"CC1(C)CCC(c2ccc(Cl)cc2)=C(CN2CCN(c3ccc(C(=O)NS(=O)(=O)c4ccc(N[C@H](CCN5CCOCC5)CSc5ccccc5)c(S(=O)(=O)C(F)(F)F)c4)cc3)CC2)C1 + Cc1cc(N2CCOCC2)cc2[nH]c(-c3c(NC[C@@H](O)c4cccc(Cl)c4)cc[nH]c3=O)nc12 [BMS536924] (first compound 0.4 µM, partner dose 0.2 µM)",152
8,"CC(=O)O[C@@]12CO[C@@H]1C[C@H](O)[C@@]1(C)C(=O)[C@H](O)C3=C(C)[C@@H](OC(=O)[C@H](O)[C@@H](NC(=O)OC(C)(C)C)c4ccccc4)C[C@@](O)([C@@H](OC(=O)c4ccccc4)[C@H]21)C3(C)C [Docetaxel] + COCC[n+]1c2c(n(Cc3cnccn3)c1C)C(=O)c1ccccc1C2=O [YM155] (first compound 0.0001 µM, partner dose 0.0004 µM)",338
9,"NC1(c2ccc(-c3nc4ccn5c(=O)[nH]nc5c4cc3-c3ccccc3)cc2)CCC1 + CC(=O)c1c(C)c2cnc(Nc3ccc(N4CCNCC4)cn3)nc2n(C2CCCC2)c1=O [palbociclib] (first compound 0.4 µM, partner dose 0.04 µM)",133
10,"Cn1sc(=O)n(Cc2ccccc2)c1=O + Cc1cc([N+](=O)[O-])ccc1NS(=O)(=O)c1cc(Cl)ccc1Cl [FH535] (first compound 0.4 µM, partner dose 1 µM)",35.6
11,"CN(c1ncccc1CNc1nc(Nc2ccc3c(c2)CC(=O)N3)ncc1C(F)(F)F)S(C)(=O)=O + Nc1cccc2c1CN(C1CCC(=O)NC1=O)C2=O [lenalidomide] (first compound 0.08 µM, partner dose 1 µM)",70.1
12,"NC(=O)c1ccc(N(C(N)=O)c2c(F)cccc2F)nc1-c1ccc(F)cc1F + C[C@]1(c2nc3c(C(N)=O)cccc3[nH]2)CCCN1 [Veliparib] (first compound 0.4 µM, partner dose 1.4 µM)",88.4
13,"CCCCCCCCc1ccc(CCC(N)(CO)CO)cc1 [fingolimod] + O=C(O)c1ccc2c(c1)nc(Nc1cccc(Cl)c1)c1ccncc12 [CX4945] (first compound 2 µM, partner dose 0.4 µM)",67.9
14,"C[C@@H](N)c1ccc(C(=O)Nc2ccnc3[nH]ccc23)cc1 + Cc1cc(N2CCOCC2)cc2[nH]c(-c3c(NC[C@@H](O)c4cccc(Cl)c4)cc[nH]c3=O)nc12 [BMS536924] (first compound 0.4 µM, partner dose 0.2 µM)",124
15,"CCCCCCCCc1ccc(CCC(N)(CO)CO)cc1 [fingolimod] + C=CCn1c(=O)c2cnc(Nc3ccc(N4CCN(C)CC4)cc3)nc2n1-c1cccc(C(C)(C)O)n1 [MK1775] (first compound 2 µM, partner dose 0.02 µM)",88.8
16,"CN(c1ncccc1CNc1nc(Nc2ccc3c(c2)CC(=O)N3)ncc1C(F)(F)F)S(C)(=O)=O + Nc1nc(F)nc2c1ncn2[C@@H]1O[C@H](CO)[C@@H](O)[C@@H]1O [fludarabine] (first compound 0.08 µM, partner dose 0.2 µM)",136
17,"C[C@@H](N)c1ccc(C(=O)Nc2ccnc3[nH]ccc23)cc1 + CS(=O)(=O)CCNCc1ccc(-c2ccc3ncnc(Nc4ccc(OCc5cccc(F)c5)c(Cl)c4)c3c2)o1 [lapatinib] (first compound 0.4 µM, partner dose 0.8 µM)",40.8
18,"NC(=O)c1ccc(N(C(N)=O)c2c(F)cccc2F)nc1-c1ccc(F)cc1F + CS(=O)(=O)CCNCc1ccc(-c2ccc3ncnc(Nc4ccc(OCc5cccc(F)c5)c(Cl)c4)c3c2)o1 [lapatinib] (first compound 0.4 µM, partner dose 0.8 µM)",67
19,"CS(=O)(=O)c1ccc(C(=O)Nc2ccc(Cl)c(-c3ccccn3)c2)c(Cl)c1 [vismodegib] + O=C(O)c1ccc2c(c1)nc(Nc1cccc(Cl)c1)c1ccncc12 [CX4945] (first compound 1 µM, partner dose 0.4 µM)",85.2
20,"CC(=O)O[C@@]12CO[C@@H]1C[C@H](O)[C@@]1(C)C(=O)[C@H](O)C3=C(C)[C@@H](OC(=O)[C@H](O)[C@@H](NC(=O)OC(C)(C)C)c4ccccc4)C[C@@](O)([C@@H](OC(=O)c4ccccc4)[C@H]21)C3(C)C [Docetaxel] + CCc1ccc(CCOc2ccc(CC3SC(=O)NC3=O)cc2)nc1 [pioglitazone] (first compound 0.0001 µM, partner dose 2 µM)",339
21,"Cn1cnc2c(F)c(Nc3ccc(Br)cc3Cl)c(C(=O)NOCCO)cc21 [selumetinib] + Cn1c(Nc2ccc(C(F)(F)F)cc2)nc2cc(Oc3ccnc(-c4ncc(C(F)(F)F)[nH]4)c3)ccc21 [CHIR265] (first compound 0.015 µM, partner dose 0.08 µM)",131
22,"NC1(c2ccc(-c3nc4ccn5c(=O)[nH]nc5c4cc3-c3ccccc3)cc2)CCC1 + c1cc(-c2cnn3cc(-c4ccc(OCCN5CCCCC5)cc4)cnc23)ccn1 [Dorsomorphin] (first compound 0.4 µM, partner dose 0.4 µM)",81.6
23,"CC(=O)O[C@@]12CO[C@@H]1C[C@H](O)[C@@]1(C)C(=O)[C@H](O)C3=C(C)[C@@H](OC(=O)[C@H](O)[C@@H](NC(=O)OC(C)(C)C)c4ccccc4)C[C@@](O)([C@@H](OC(=O)c4ccccc4)[C@H]21)C3(C)C [Docetaxel] + CC(=O)c1c(C)c2cnc(Nc3ccc(N4CCNCC4)cn3)nc2n(C2CCCC2)c1=O [palbociclib] (first compound 0.0001 µM, partner dose 0.04 µM)",126
24,"COc1ccc(C2=N[C@@H](c3ccc(Cl)cc3)[C@@H](c3ccc(Cl)cc3)N2C(=O)N2CCNC(=O)C2)c(OC(C)C)c1 [Nutlin-3] + Nc1nc(F)nc2c1ncn2[C@@H]1O[C@H](CO)[C@@H](O)[C@@H]1O [fludarabine] (first compound 0.1 µM, partner dose 0.2 µM)",72
25,"CCN(CC)CCNC(=O)c1c(C)[nH]c(/C=C2\C(=O)Nc3ccc(F)cc32)c1C [sunitinib] + C=C(c1ccc(C(=O)O)cc1)c1cc2c(cc1C)C(C)(C)CCC2(C)C [Bexarotene] (first compound 0.4 µM, partner dose 2 µM)",44.7
26,"NC(=O)c1ccc(N(C(N)=O)c2c(F)cccc2F)nc1-c1ccc(F)cc1F + Cn1nnc2c(C(N)=O)ncn2c1=O [temozolomide] (first compound 0.4 µM, partner dose 2 µM)",130
27,"CC1(C)CCC(c2ccc(Cl)cc2)=C(CN2CCN(c3ccc(C(=O)NS(=O)(=O)c4ccc(N[C@H](CCN5CCOCC5)CSc5ccccc5)c(S(=O)(=O)C(F)(F)F)c4)cc3)CC2)C1 + CN(c1ncccc1CNc1nc(Nc2ccc3c(c2)CC(=O)N3)ncc1C(F)(F)F)S(C)(=O)=O [PF562271] (first compound 0.4 µM, partner dose 0.08 µM)",215
28,"Cn1sc(=O)n(Cc2ccccc2)c1=O + CC(C)C[C@H](NC(=O)[C@H](Cc1ccccc1)NC(=O)c1cnccn1)B(O)O [Bortezomib] (first compound 0.4 µM, partner dose 0.001 µM)",114
29,"C[C@]1(O)C[C@@H](c2nc(-c3ccc4ccc(-c5ccccc5)nc4c3)c3c(N)nccn32)C1 + C=CCn1c(=O)c2cnc(Nc3ccc(N4CCN(C)CC4)cc3)nc2n1-c1cccc(C(C)(C)O)n1 [MK1775] (first compound 0.4 µM, partner dose 0.02 µM)",178
30,"CS(=O)(=O)c1ccc(C(=O)Nc2ccc(Cl)c(-c3ccccn3)c2)c(Cl)c1 [vismodegib] + C[C@@H](Oc1cc(-c2cnn(C3CCNCC3)c2)cnc1N)c1c(Cl)ccc(F)c1Cl [Crizotinib] (first compound 1 µM, partner dose 0.2 µM)",127

# Reformatted: results already given
row	Structure (SMILES)	cleaved PARP positive nuclei fraction [%]
25	CCN(CC)CCNC(=O)c1c(C)[nH]c(/C=C2\C(=O)Nc3ccc(F)cc32)c1C [sunitinib] + C=C(c1ccc(C(=O)O)cc1)c1cc2c(cc1C)C(C)(C)CCC2(C)C [Bexarotene] (first compound 0.4 µM, partner dose 2 µM)	44.7
26	NC(=O)c1ccc(N(C(N)=O)c2c(F)cccc2F)nc1-c1ccc(F)cc1F + Cn1nnc2c(C(N)=O)ncn2c1=O [temozolomide] (first compound 0.4 µM, partner dose 2 µM)	130
